{"source": "PubChem BioAssay AID1259331, Drosophila RNAi Screening Center – 2017", "purpose": "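Knock-downs that alter ATP level after a high zinc chloride dose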 (primary screen)", "cell system": "Drosophila S2R+ cells", "knock-down reagent": "long dsRNA against Drosophila genes", "timing": "5 days (4 days knock-down, then 1 day zinc)", "treatment": "zinc chloride at 15 mM final level for 1 day", "measured": "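Luminescent ATP assay standing in for viability; Z score is the mean over three replicate plates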", "direction": "mean Z score: higher = more ATP than other wells, better survival under zinc; ATP luminescence: higher = more ATP, more viable cells", "call rule": "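a reagent is called a hit when its Z score is above 1.5 or below -1.5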", "calls": "active = hit, ATP up or down; inactive = not a hit", "note": "The whole screen tested about 3,100 reagents; this is a part drawn at random. Of all reagents, 126 (4.1%) were called active. 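Calls are per reagent; zinc was so toxic that few knock-downs lowered ATP further, so most hits raise ATP.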 The raw values are shown without normalisation. A number with no mark means an inactive call. Not stated in the record: the amount of reagent."}
{"target gene": "CG42685", "DRSC id": "DRSC01971", "mean Z score": -0.521, "ATP luminescence, replicate 1": 44565, "ATP luminescence, replicate 2": 37125}
{"target gene": "CG42685", "DRSC id": "DRSC39526", "mean Z score": 0.0605, "ATP luminescence, replicate 1": 51597, "ATP luminescence, replicate 2": 52795}
{"target gene": "prom (prominin)", "DRSC id": "DRSC22088", "mean Z score": -0.235, "ATP luminescence, replicate 1": 44240, "ATP luminescence, replicate 2": 46331}
{"target gene": "prom (prominin)", "DRSC id": "DRSC26828", "mean Z score": -0.325, "ATP luminescence, replicate 1": 57151, "ATP luminescence, replicate 2": 46177}
{"target gene": "prom (prominin)", "DRSC id": "DRSC27557", "mean Z score": -0.338, "ATP luminescence, replicate 1": 60358, "ATP luminescence, replicate 2": 57486}
{"target gene": "prom (prominin)", "DRSC id": "DRSC39649", "mean Z score": -0.214, "ATP luminescence, replicate 1": 56911, "ATP luminescence, replicate 2": 55179}
{"target gene": "SppL (Signal peptide peptidase-like)", "DRSC id": "DRSC15228", "mean Z score": 0.00892, "ATP luminescence, replicate 1": 30833, "ATP luminescence, replicate 2": 56499}
{"target gene": "spin (spinster)", "DRSC id": "DRSC22271", "mean Z score": 0.227, "ATP luminescence, replicate 1": 58111, "ATP luminescence, replicate 2": 61175}
{"target gene": "spin (spinster)", "DRSC id": "DRSC39628", "mean Z score": -0.0268, "ATP luminescence, replicate 1": 63324, "ATP luminescence, replicate 2": 54339}
{"target gene": "nAChRalpha7 (nicotinic Acetylcholine Receptor alpha7)", "DRSC id": "DRSC20078", "mean Z score": -0.247, "ATP luminescence, replicate 1": 40485, "ATP luminescence, replicate 2": 39833}
{"target gene": "nAChRalpha7 (nicotinic Acetylcholine Receptor alpha7)", "DRSC id": "DRSC20081", "mean Z score": -0.119, "ATP luminescence, replicate 1": 37344, "ATP luminescence, replicate 2": 39628}
{"target gene": "Stt3A", "DRSC id": "DRSC20514", "mean Z score": -0.196, "ATP luminescence, replicate 1": 43924, "ATP luminescence, replicate 2": 42902}
{"target gene": "Stt3A", "DRSC id": "DRSC24884", "mean Z score": -0.265, "ATP luminescence, replicate 1": 51666, "ATP luminescence, replicate 2": 63063}
{"target gene": "CG10353", "DRSC id": "DRSC19354", "mean Z score": -0.31, "ATP luminescence, replicate 1": 55588, "ATP luminescence, replicate 2": 66360}
{"target gene": "CG10353", "DRSC id": "DRSC29888", "mean Z score": 0.405, "ATP luminescence, replicate 1": 52127, "ATP luminescence, replicate 2": 53927}
{"target gene": "CG30049", "DRSC id": "DRSC21345", "mean Z score": 0.00822, "ATP luminescence, replicate 1": 48756, "ATP luminescence, replicate 2": 46863}
{"target gene": "CG30049", "DRSC id": "DRSC26709", "mean Z score": -0.716, "ATP luminescence, replicate 1": 60015, "ATP luminescence, replicate 2": 40982}

Looked up above.
nAChRalpha7 (nicotinic Acetylcholine Receptor alpha7) [DRSC20078], mean Z score: -0.247
For “ATP luminescence, replicate 2”, Stt3A [DRSC20514] shows 42902
